Results are given in words; binding and its absence hold for the method and conditions named. For some of these results: Binding can be weak; no strength is given.
Key:
[1] = target: ComR S. mutans, full length (Streptococcus mutans); assay: SEC; proteins incubated on ice 15 min at 1:1.5 molar ratio ComR:Prx (higher ratio of DBD); Superdex 75; 20 mM Tris-HCl pH 7.5, 100 mM NaCl, 1 mM β-ME; fractions on SDS-PAGE; both purified
[2] = target: ComR S. mutans, full length (Streptococcus mutans); assay: ITC; 300 μM Prx (or PrxD32A) injected into 20 μM ComR S. mutans or DBD, 25 °C, gel filtration buffer (20 mM Tris-HCl pH 7.5, 100 mM NaCl, 1 mM β-ME); one site model; both purified

B1: Prx D12A (protein, UniProt Q4VUT1 1-60)
chain: MLTYDEFKQAIARGYITADTVMIVRKNGQIFDYVLPNEKIKNGEIVTDEKVEEVLVELSR
Question: With B1 as the binder, how does the binding [1] read?
Answer: binds

B2: PrxF31A (protein, UniProt Q4VUT1 1-60)
chain: MLTYDEFKQAIDRGYITADTVMIVRKNGQIADYVLPNEKIKNGEIVTDEKVEEVLVELSR
Question: Which binding [1] does the source give for B2 here?
Answer: binds

B3: PrxE6A (protein, UniProt Q4VUT1 1-60)
chain: MLTYDAFKQAIDRGYITADTVMIVRKNGQIFDYVLPNEKIKNGEIVTDEKVEEVLVELSR
Question: B3 was tested. Which binding [1] did it give?
Answer: no binding

B4: PrxD32A (protein, UniProt Q4VUT1 1-60)
chain: MLTYDEFKQAIDRGYITADTVMIVRKNGQIFAYVLPNEKIKNGEIVTDEKVEEVLVELSR
Question: B4 was tested. Which binding [2] did it give?
Answer: no binding (tested: 300 μM PrxD32A injected into 20 μM ComR)

Reference: paper PMC8383118
